Data as given in PubChem BioAssay AID504808 (Drosophila RNAi Screening Center, 2011).

- Test: 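Genes whose loss lifts activity of an E2F-responsive reporter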 (primary screen)
- Cells: Drosophila S2 cells
- Knock-down reagent: long dsRNA against Drosophila genes
- Measurement: 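Firefly luciferase driven by E2F sites, normalised to Renilla luciferase on the same minimal promoter, measured by plate reader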
- Reading the numbers: E2F firefly: higher = more E2F reporter activity; Renilla normaliser: higher = more normaliser reporter signal
- Call rule: 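a knock-down counted as active when the firefly/Renilla E2F signal rose above 50%, a threshold chosen arbitrarily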
The deposit covers about 21,000 reagents; this is an unselected part of those with a known target gene and a result. Of all reagents, 18 (0.084%) were called active. 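Raw counts without plate normalisation, one of two replicates; the ratio scores behind the calls were not deposited.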 Entries without a mark were called inactive. Not stated in the record: the amount of reagent, the time to read-out.

Arp3 (Actin-related protein 3) [DRSC09669] → E2F firefly, rep 1: 92729; Renilla normaliser, rep 1: 3962
Mco1 (Multicopper oxidase 1) [DRSC02720] → E2F firefly, rep 1: 1.40e5; Renilla normaliser, rep 1: 5159
Tom70 (Translocase of outer membrane 70) [DRSC02990] → E2F firefly, rep 1: 1.02e5; Renilla normaliser, rep 1: 4166
hdly (hadley) [DRSC15849] → E2F firefly, rep 1: 1.54e5; Renilla normaliser, rep 1: 8090
CG42680 [DRSC01399] → E2F firefly, rep 1: 1.47e5; Renilla normaliser, rep 1: 5777
CG11159 [DRSC06050] → E2F firefly, rep 1: 89898; Renilla normaliser, rep 1: 4209
CG12567 [DRSC20845] → E2F firefly, rep 1: 1.28e5; Renilla normaliser, rep 1: 6835
CG14079 [DRSC10083] → E2F firefly, rep 1: 1.44e5; Renilla normaliser, rep 1: 7163
ena (enabled) [DRSC05779] → E2F firefly, rep 1: 1.61e5; Renilla normaliser, rep 1: 4258
ena (enabled) [DRSC07610] → E2F firefly, rep 1: 72202; Renilla normaliser, rep 1: 3137
CG4338 [DRSC15564] → E2F firefly, rep 1: 73116; Renilla normaliser, rep 1: 3596
Vha68-2 (Vacuolar H[+] ATPase 68 kDa subunit 2) [DRSC02721] → E2F firefly, rep 1: 99818; Renilla normaliser, rep 1: 4601
key (kenny) [DRSC04285] → E2F firefly, rep 1: 95593; Renilla normaliser, rep 1: 3993
Arv1 (ACAT-related protein required for viability 1) [DRSC11491] → E2F firefly, rep 1: 87356; Renilla normaliser, rep 1: 3858
Nxt1 (NTF2-related export protein 1) [DRSC04630] → E2F firefly, rep 1: 94233; Renilla normaliser, rep 1: 4664
CG7707 [DRSC10903] → E2F firefly, rep 1: 1.39e5; Renilla normaliser, rep 1: 7917
link [DRSC06368] → E2F firefly, rep 1: 77959; Renilla normaliser, rep 1: 4412
spoon (spoonbill) [DRSC18299] → E2F firefly, rep 1: 7985; Renilla normaliser, rep 1: 696
CG30414 [DRSC04372] → E2F firefly, rep 1: 1.05e5; Renilla normaliser, rep 1: 4201
zf30C (zinc finger protein 30C) [DRSC03641] → E2F firefly, rep 1: 1.07e5; Renilla normaliser, rep 1: 4150
CG3744 [DRSC15511] → E2F firefly, rep 1: 1.12e5; Renilla normaliser, rep 1: 5696
CG9536 [DRSC03254] → E2F firefly, rep 1: 92753; Renilla normaliser, rep 1: 3935
CG13312 [DRSC09983] → E2F firefly, rep 1: 94473; Renilla normaliser, rep 1: 3912

The list goes on; the last 5 above are carried over.
CG30414 [DRSC04372] → E2F firefly, rep 1: 1.05e5; Renilla normaliser, rep 1: 4201
zf30C (zinc finger protein 30C) [DRSC03641] → E2F firefly, rep 1: 1.07e5; Renilla normaliser, rep 1: 4150
CG3744 [DRSC15511] → E2F firefly, rep 1: 1.12e5; Renilla normaliser, rep 1: 5696
CG9536 [DRSC03254] → E2F firefly, rep 1: 92753; Renilla normaliser, rep 1: 3935
CG13312 [DRSC09983] → E2F firefly, rep 1: 94473; Renilla normaliser, rep 1: 3912
Nsun5 (Nop2/Sun-like domain containing protein 5) [DRSC15835] → E2F firefly, rep 1: 75645; Renilla normaliser, rep 1: 4059
CG11498 [DRSC14315] → E2F firefly, rep 1: 93915; Renilla normaliser, rep 1: 5079
Dgk (Diacyl glycerol kinase) [DRSC05064] → E2F firefly, rep 1: 1.23e5; Renilla normaliser, rep 1: 4941
Dgk (Diacyl glycerol kinase) [DRSC05065] → E2F firefly, rep 1: 1.41e5; Renilla normaliser, rep 1: 6695
Dgk (Diacyl glycerol kinase) [DRSC06171] → E2F firefly, rep 1: 1.29e5; Renilla normaliser, rep 1: 4197
Dgk (Diacyl glycerol kinase) [DRSC06782] → E2F firefly, rep 1: 1.55e5; Renilla normaliser, rep 1: 4950
CG31826 [DRSC03357] → E2F firefly, rep 1: 1.10e5; Renilla normaliser, rep 1: 5014
VhaSFD (Vacuolar H[+]-ATPase SFD subunit) [DRSC03471] → E2F firefly, rep 1: 71374; Renilla normaliser, rep 1: 2955
Ubr3 (Ubr3 ubiquitin ligase) [DRSC17987] → E2F firefly, rep 1: 7544; Renilla normaliser, rep 1: 660
Ubr3 (Ubr3 ubiquitin ligase) [DRSC17997] → E2F firefly, rep 1: 1.15e5; Renilla normaliser, rep 1: 5225
ds (dachsous) [DRSC00815] → E2F firefly, rep 1: 1.72e5; Renilla normaliser, rep 1: 6180
CG11350 [DRSC08181] → E2F firefly, rep 1: 81283; Renilla normaliser, rep 1: 3715
CG6149 [DRSC10593] → E2F firefly, rep 1: 1.12e5; Renilla normaliser, rep 1: 6459
